PubChem BioAssay AID540276 (National Center for Advancing Translational Sciences (NCATS), 2011)
Where “and” joins values, the source holds several entries; their conditions need not be identical. Equal values may be shown once. Among all 300,000 compounds or so, about 5,400 (1.8%) were called active. Inconclusive results, whose numbers are uncertain, are shown with a selection of clear calls. Calls follow the shape of the full dose curve; tested in HEK293 cells. Where the call is inconclusive, the potency comes from a doubtful curve fit. Residues, ends and D or L forms follow the SMILES beside them. *: point of attachment. Boc = CC(C)(C)OC(=O)*; OBn = c1ccc(CO*)cc1

assay: qHTS for inhibitors of binding or entry into cells for Marburg Virus; settings: Marburg virus pseudotyped entry inhibition, cell reporter; activity change, negative = inhibition: at 37.8 µM (top of the series) unless noted
% is scaled to controls: 0 for no effect and ±100 for the full control effect; potency is read from the fitted curve at half-maximal effect.

SMILES	Potency	activity change, negative = inhibition
O=C(NCc1ccco1)C1CC(=O)N(c2ccc(Cl)cc2)C1 (stereo not drawn)	inconclusive: 6.31 µM [activator, single point]	
COc1ccc(S(=O)(=O)Nc2cc3c(C(C)=O)c(C)oc3c3ccccc23)cc1	inconclusive: 5.62 µM [inhibitor, partial curve, poor fit]	
Nc1nc(CN2CCc3ccccc3C2)nc(Nc2ccccc2)n1	inconclusive: 35.5 µM [inhibitor, single point]	
COc1ccc(C2C3=C(CC(C)(C)CC3=O)Oc3ncn(CCCn4ccnc4)c(=N)c32)cc1 (stereo not drawn)	inactive and inconclusive: 35.5 µM [inhibitor, single point]	
CCN(C(=O)c1cc2c(=O)n(CC)c3ccccc3c2s1)c1cccc(C(F)(F)F)c1	inactive	
CCOC(=O)c1c(C)nc(C)c(C(=O)OCC)c1-c1ccc(Br)cc1	inconclusive: 7.08 µM [inhibitor, full curve, poor fit]	
Cc1cccc(-c2cc3nc(C)cc(NCCCn4ccnc4)n3n2)c1	inconclusive: 25.1 µM [inhibitor, single point]	
CCOC(=O)c1cnc(/N=C/N(C)C)s1	inactive	
CCCc1cc(=O)[nH]c(N/N=C/C=C\c2ccccc2)n1	inconclusive: 5.62 µM [inhibitor, full curve, poor fit]	
N#CCCNC(=O)Cn1c(COc2ccc(Cl)cc2)nc2ccccc21	inconclusive: 3.98 µM [inhibitor, single point]	
Cc1ccc(CN2C(=O)C(=O)c3cc(Br)cc(C)c32)cc1	inconclusive: 7.94 µM [inhibitor, partial curve, poor fit]	
O=C(CN1CCN(Cc2ccc3c(c2)OCO3)CC1)N1CCc2[nH]c3ccc(F)cc3c2C1	inconclusive: 35.5 µM [inhibitor, single point]	
CC(C)C(NC(=O)c1c(F)cccc1F)C(=O)OCN1C(=O)c2ccccc2C1=O (stereo not drawn)		inconclusive: 6.71% [activator]
CSc1ccc(CCNC(=O)Cn2ncn3c(cc4ccccc43)c2=O)cc1	inactive	
COCCNC(=O)c1ccc2c(c1)CCN2S(C)(=O)=O	inactive	
CC(C)(C)OC(=O)NCC(=O)NCC(=O)OCc1ccccc1 (Boc-Gly-Gly-OBn)	inconclusive: 5.62 µM [activator, single point]	
CCOc1ccccc1C(=O)N[C@H](C(=O)Nc1cc(S(=O)(=O)N(C)C)ccc1OC)C(C)C	inconclusive: 4.47 µM [inhibitor, partial curve, poor fit]	
CCN(CC)C(=O)CSc1nc(C)cc(C)n1	inconclusive: 12.6 µM [activator, partial curve]	

Nothing new here: entries from further up.
SMILES	Potency	activity change, negative = inhibition
CCOC(=O)c1c(C)nc(C)c(C(=O)OCC)c1-c1ccc(Br)cc1	inconclusive: 7.08 µM [inhibitor, full curve, poor fit]	
Cc1cccc(-c2cc3nc(C)cc(NCCCn4ccnc4)n3n2)c1	inconclusive: 25.1 µM [inhibitor, single point]	
